PubChem BioAssay AID504793, Drosophila RNAi Screening Center, 2011

- Test: 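Knock-downs allowing continued mitosis even though DNA is damaged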 (primary screen)
- System: Drosophila S2R+ cells
- Knock-down reagent: long dsRNA against Drosophila genes, about 0.25 µg dsRNA per well
- Timing: 4 days of dsRNA, then 4 hours of drug before read-out
- Treatment: doxorubicin 0.5 µM for 4 hours to cause double-strand breaks, in cells also given a low, harmless dose of dsRNA against nbs to sensitise the assay
- Measured: 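Per-well count of mitotic cells stained for phospho-histone H3 after doxorubicin exposure, used as mitotic index; counts are raw and not normalised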
- Reading the numbers: mitotic cells: higher = more cells in mitosis, weaker G2 arrest
- Rule for the call: 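Genes are called active only when high mitotic counts were reproduced with independent dsRNAs and mitosis was checked for delay without damage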
- Meaning of the calls: active = confirmed in follow-up tests; inactive = not confirmed
The screen tested about 23,000 reagents; below is an unselected part of those with a known target gene and a result. Of all reagents, 62 (0.27%) are marked active. 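Calls come from follow-up tests whose scores are not deposited, so confirmed genes may have low counts here; counts are not normalised per plate.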 Raw values are not corrected between plates.

{"predicted target":"CRIF","DRSC id":"DRSC11811","mitotic cells, replicate 1":4,"outcome":"inactive"}
{"predicted target":"CRIF","DRSC id":"DRSC26514","mitotic cells, replicate 1":5,"outcome":"inactive"}
{"predicted target":"Tat","DRSC id":"DRSC19602","mitotic cells, replicate 1":12,"outcome":"inactive"}
{"predicted target":"Ama","DRSC id":"DRSC12489","mitotic cells, replicate 1":6,"outcome":"inactive"}
{"predicted target":"Vav","DRSC id":"DRSC20384","mitotic cells, replicate 1":9,"outcome":"inactive"}
{"predicted target":"Vav","DRSC id":"DRSC24485","mitotic cells, replicate 1":12,"outcome":"inactive"}
{"predicted target":"CG6873","DRSC id":"DRSC20014","mitotic cells, replicate 1":4,"outcome":"inactive"}
{"predicted target":"CG31806","DRSC id":"DRSC02787","mitotic cells, replicate 1":7,"outcome":"inactive"}
{"predicted target":"CG31806","DRSC id":"DRSC29784","mitotic cells, replicate 1":10,"outcome":"inactive"}
{"predicted target":"CG14535","DRSC id":"DRSC02393","outcome":"inactive"}
{"predicted target":"Mal-A7","DRSC id":"DRSC06077","mitotic cells, replicate 1":3,"outcome":"inactive"}
{"predicted target":"CG6654","DRSC id":"DRSC16084","mitotic cells, replicate 1":3,"outcome":"inactive"}
{"predicted target":"VhaAC39-2","DRSC id":"DRSC15609","mitotic cells, replicate 1":14,"outcome":"inactive"}

Next part; the last 3 above are carried over.
{"predicted target":"Mal-A7","DRSC id":"DRSC06077","mitotic cells, replicate 1":3,"outcome":"inactive"}
{"predicted target":"CG6654","DRSC id":"DRSC16084","mitotic cells, replicate 1":3,"outcome":"inactive"}
{"predicted target":"VhaAC39-2","DRSC id":"DRSC15609","mitotic cells, replicate 1":14,"outcome":"inactive"}
{"predicted target":"CG16772","DRSC id":"DRSC02516","mitotic cells, replicate 1":3,"outcome":"inactive"}
{"predicted target":"CG16772","DRSC id":"DRSC25947","mitotic cells, replicate 1":4,"outcome":"inactive"}
{"predicted target":"CAH14","DRSC id":"DRSC04234","mitotic cells, replicate 1":4,"outcome":"inactive"}
{"predicted target":"CAH14","DRSC id":"DRSC22160","mitotic cells, replicate 1":18,"outcome":"inactive"}
{"predicted target":"fusl","DRSC id":"DRSC02351","mitotic cells, replicate 1":4,"outcome":"inactive"}
{"predicted target":"fusl","DRSC id":"DRSC28283","mitotic cells, replicate 1":6,"outcome":"inactive"}
{"predicted target":"CG10352","DRSC id":"DRSC19353","mitotic cells, replicate 1":8,"outcome":"inactive"}
{"predicted target":"CG5455","DRSC id":"DRSC15805","mitotic cells, replicate 1":4,"outcome":"inactive"}
{"predicted target":"CG5455","DRSC id":"DRSC27389","mitotic cells, replicate 1":4,"outcome":"inactive"}
{"predicted target":"ICA69","DRSC id":"DRSC11621","mitotic cells, replicate 1":6,"outcome":"inactive"}
